About 820 (0.21%) of roughly 390,000 compounds were called active. This list was built around the results that the source calls inconclusive (neither active nor inactive); the mix of calls is not that of the screen. The call rests on the fitted dose curve; in most records, active means well fitted inhibition curve with a large enough effect; inconclusive means small, poorly fitted or top-dose-only effect, or another doubt; inactive means no such curve, though single readings can be large or run the other way. Where the call is inconclusive, the potency comes from a doubtful curve fit.
target: Histone acetyltransferase KAT2A (Homo sapiens) (UniProt Q92830); assay: qHTS Assay for Inhibitors of GCN5L2; conditions: GCN5L2 HAT assay, ThioGlo1 CoA-SH fluorescence; activity change, negative = inhibition: at 58.9 µM (top of the series) unless noted
In short: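 Titration-based screen in which CoA formation is detected via maleimide probe ThioGlo1 (50uM) turning fluorescent on thiol reaction; substrates H3(1-25) 75uM and acetyl-CoA 70uM, GCN5L2 20nM, 20 min incubation at room temperature.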
On the % scale 0 is the no-effect control and ±100 the full control effect; potency means the concentration at half of the fitted maximal effect.

Protein sequences, listed by entry. Tags and fused reporters are not part of them.
UniProt Q92830, whole entry, looked up: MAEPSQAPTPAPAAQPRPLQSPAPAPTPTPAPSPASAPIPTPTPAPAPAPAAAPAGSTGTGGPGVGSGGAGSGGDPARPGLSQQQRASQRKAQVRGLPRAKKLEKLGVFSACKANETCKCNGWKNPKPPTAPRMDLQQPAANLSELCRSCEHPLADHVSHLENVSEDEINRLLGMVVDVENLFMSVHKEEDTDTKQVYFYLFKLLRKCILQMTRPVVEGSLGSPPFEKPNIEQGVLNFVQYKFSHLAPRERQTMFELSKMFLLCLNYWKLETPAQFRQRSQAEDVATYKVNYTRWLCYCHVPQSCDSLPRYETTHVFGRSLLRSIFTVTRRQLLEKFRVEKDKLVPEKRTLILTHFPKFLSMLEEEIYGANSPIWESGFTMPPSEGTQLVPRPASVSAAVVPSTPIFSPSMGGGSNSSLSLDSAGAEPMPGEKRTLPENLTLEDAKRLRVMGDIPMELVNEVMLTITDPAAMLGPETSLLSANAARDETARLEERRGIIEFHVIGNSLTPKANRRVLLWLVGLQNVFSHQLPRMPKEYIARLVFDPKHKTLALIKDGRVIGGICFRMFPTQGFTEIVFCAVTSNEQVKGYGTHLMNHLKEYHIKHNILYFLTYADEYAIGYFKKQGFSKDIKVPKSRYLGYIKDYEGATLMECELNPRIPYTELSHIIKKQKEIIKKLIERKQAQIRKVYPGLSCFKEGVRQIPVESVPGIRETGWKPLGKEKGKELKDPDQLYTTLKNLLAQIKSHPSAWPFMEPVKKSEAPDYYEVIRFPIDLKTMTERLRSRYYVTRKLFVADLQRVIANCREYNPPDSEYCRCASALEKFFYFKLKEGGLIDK

**Q.** For `O=C(Nc1cccc(NC(=O)c2ccccc2)n1)c1ccccc1`, which Potency is on record?
**A.** inconclusive: 3.16 µM [inhibitor, partial curve]

**Q.** `Cc1ccc2c(c1)C(c1ccccc1)N(C(=O)CC(C)C)CC(=O)N2` (stereo not given) was tested. Which “activity change, negative = inhibition” value did it give?
**A.** inactive: -15%

**Q.** Which Potency does the source give for `CN1CCN(c2ncc3nc(CCc4ccccc4)c(=O)n(Cc4cccs4)c3n2)CC1` here?
**A.** inconclusive: 39.8 µM [inhibitor, single point]

**Q.** For `Cc1c(O)c(=O)c2ccccc2n1C`, which Potency is on record?
**A.** inconclusive: 39.8 µM [inhibitor, single point]

**Q.** How did the Potency turn out when `COc1ccc(CCNC(=O)c2ccc3c(c2)N(Cc2ccccc2)CCS3)cc1OC` was run?
**A.** inconclusive: 1 µM [inhibitor, full curve, poor fit]

**Q.** For `Cc1ccc([C@@H]2CC=C(C(=O)O)[C@H](c3ccc(Br)cc3)N2S(=O)(=O)c2ccc(C)cc2)cc1`, which Potency is on record?
**A.** inconclusive: 35.5 µM [inhibitor, single point]

**Q.** For `O=c1ccc2cc3c([nH]c4ccc(Br)cc43)oc-2c1O`, which Potency is on record?
**A.** inconclusive: 39.8 µM [inhibitor, single point]

**Q.** Which Potency does the source give for `CCOCC(=O)Nc1cc(C(=O)NCCC(C)C)ccc1Cl` here?
**A.** inconclusive: 4.47 µM [inhibitor, single point]

**Q.** How did the Potency turn out when `COCCNC(=S)N1CCN(C(c2ccccc2)c2ccccc2)CC1` was run?
**A.** inconclusive: 0.708 µM [inhibitor, full curve, poor fit]

**Q.** How did the Potency turn out when `CCNC(=O)[C@H]1O[C@@H](n2cnc3c(N)nc(NCCc4ccc(CCC(=O)O)cc4)nc32)[C@H](O)[C@@H]1O` was run?
**A.** inconclusive: 39.8 µM [inhibitor, single point]

**Q.** With `N#C/C(=C\c1cccnc1)C(=O)Nc1ccccc1[N+](=O)[O-]` as the molecule, how does the Potency read?
**A.** inconclusive: 0.891 µM [inhibitor, full curve, poor fit]

**Q.** Which “activity change, negative = inhibition” value does the source give for `COc1ccc(-c2cc(NC(=O)c3cncn3-c3ccccc3)ccc2OC)cc1` here?
**A.** inactive: -11.4%

**Q.** With `O=c1nc(N2CCCCC2)nc(Nc2ccccc2)[nH]1` as the molecule, how does the “activity change, negative = inhibition” value read?
**A.** inactive: 6.09%

**Q.** With `Cc1c(C)c2c(OCC(=O)N[C@@H](CC(C)C)C(=O)O)cc3c(c2oc1=O)CCC(C)(C)O3` as the molecule, how does the Potency read?
**A.** inconclusive: 39.8 µM [inhibitor, single point]

**Q.** For `O=C(CSc1ncnc2scc(-c3ccccc3)c12)N1CCN(Cc2ccc3c(c2)OCO3)CC1`, which Potency is on record?
**A.** inconclusive: 22.4 µM [inhibitor, single point]

**Q.** For `O=C(O)Cn1c(C(=O)Nc2nc(-c3ccccc3Cl)cs2)cc2ccccc21`, which Potency is on record?
**A.** inconclusive: 28.2 µM [inhibitor, single point]

**Q.** Which Potency does the source give for `Nc1nnnn1/N=C/c1ccc(Br)cc1` here?
**A.** inconclusive: 25.1 µM [inhibitor, single point]

**Q.** With `CC(C)=CC1C(C(=O)Nc2ccc(S(=O)(=O)N3CCOCC3)cc2)C1(C)C` (stereo not given) as the molecule, how does the Potency read?
**A.** inconclusive: 39.8 µM [inhibitor, single point]

**Q.** With `Cc1ccc(-n2nc(C)c3c2OC(N)=C(C#N)C3c2ccc(C)o2)cc1` (stereo not given) as the molecule, how does the “activity change, negative = inhibition” value read?
**A.** inactive: -1.16%

**Q.** Which Potency does the source give for `CC1=NN(c2ccccc2)C(=O)/C1=C/c1c(O)n(-c2ccc(F)c(Cl)c2)[nH]c1=O` here?
**A.** inconclusive: 28.2 µM [inhibitor, single point]

**Q.** `COc1ccc(C2Nc3ccc4ccccc4c3-c3c2c(=O)oc2ccccc32)cc1` (stereo not given) was tested. Which “activity change, negative = inhibition” value did it give?
**A.** inactive: 21.3%

**Q.** Which “activity change, negative = inhibition” value does the source give for `O=C(Cn1c(=O)n(-c2ccc(Cl)cc2)c(=O)c2c3c(sc21)CCCCC3)Nc1cccc(Cl)c1` here?
**A.** inactive: -7.59%

**Q.** With `COc1ccc(N2CCN(C(=O)Cn3c(=O)c4cccn4c4cccnc43)CC2)cc1` as the molecule, how does the Potency read?
**A.** inconclusive: 39.8 µM [inhibitor, partial curve, poor fit]

**Q.** With `CC(C)(C)c1cccc(C2(O)C(=O)c3ccccc3C2=O)c1O` as the molecule, how does the Potency read?
**A.** inconclusive: 39.8 µM [inhibitor, single point]

**Q.** How did the Potency turn out when `CC(=O)NNC(=O)CSc1nnc(-c2ccccc2)c(-c2ccccc2)n1` was run?
**A.** inconclusive: 8.91 µM [inhibitor, single point]

**Q.** For `CN1CCN(Cc2c(O)ccc3cc(-c4ccc(Cl)cc4)c(=O)oc23)CC1`, which Potency is on record?
**A.** inconclusive: 39.8 µM [inhibitor, single point]

**Q.** Which “activity change, negative = inhibition” value does the source give for `Cc1nc2c(-c3ccc(F)cc3)c(C)nn2c(C)c1CCC(=O)NC(C)CCc1ccco1` (stereo not given) here?
**A.** inactive: -1.7%

**Q.** For `Cc1ccc(Cl)cc1N1CCN(C(=O)Cn2ncn3cccc3c2=O)CC1`, which “activity change, negative = inhibition” value is on record?
**A.** inactive: -29.1%

**Q.** `COc1ccc(N2CCN(C(=O)CN(c3ccccc3)S(=O)(=O)c3ccc(OC)cc3)CC2)cc1` was tested. Which “activity change, negative = inhibition” value did it give?
**A.** inactive: -5.56%

**Q.** For `CCN1CCN(c2nc(-c3ccccn3)nc3ccccc23)CC1`, which Potency is on record?
**A.** inconclusive: 0.126 µM [inhibitor, full curve, poor fit]

**Q.** For `O=C1C2=C(C(=O)c3ccccc31)C1O[C@](c3ccsc3)(Cc3c1ccc1ccccc31)O2`, which Potency is on record?
**A.** inconclusive: 7.08 µM [inhibitor, single point]

**Q.** `Cc1nc2ccccn2c1-c1ccnc(=S)[nH]1` was tested. Which Potency did it give?
**A.** inconclusive: 25.1 µM [inhibitor, partial curve]

**Q.** `CCc1ccc(CNC(=O)CCCn2nc(C)n3ccnc3c2=O)cc1` was tested. Which Potency did it give?
**A.** inconclusive: 31.6 µM [inhibitor, single point]

**Q.** `Cc1nnc(NC(=O)c2cc(-c3ccco3)nc3ccccc23)s1` was tested. Which Potency did it give?
**A.** inconclusive: 25.1 µM [inhibitor, single point]

**Q.** How did the “activity change, negative = inhibition” value turn out when `COc1ccc(NC(=O)CSc2nc3nc(C)cc(C)c3c(=O)[nH]2)cc1OC` was run?
**A.** inactive: -7.1%

**Q.** For `Cn1cnc2c(=O)oc3ccc(S(=O)(=O)N4CCN(c5cccc(C(F)(F)F)c5)CC4)cc3c21`, which Potency is on record?
**A.** inconclusive: 7.08 µM [inhibitor, single point]

**Q.** Which “activity change, negative = inhibition” value does the source give for `Cc1nnc(SCC(=O)N2CC(=O)Nc3ccccc32)s1` here?
**A.** inactive: 7.4%

**Q.** `O=S(=O)(Nc1nc(-c2sccc2Cl)cs1)c1cc(Cl)ccc1Cl` was tested. Which Potency did it give?
**A.** inconclusive: 39.8 µM [inhibitor, single point]

**Q.** How did the Potency turn out when `Cc1ccc(S(=O)(=O)NCC2(c3ccccc3)CCN(C)CC2)cc1` was run?
**A.** inconclusive: 39.8 µM [inhibitor, single point]

**Q.** Which Potency does the source give for `CCc1c(C)c2cc(Cl)c(O)c(CN3CCCC3)c2oc1=O` here?
**A.** inconclusive: 17.8 µM [inhibitor, partial curve]

**Q.** `CC(C)=CCC/C(C)=C/CC/C(C)=C/CC/C(C)=C/C(=O)O` was tested. Which Potency did it give?
**A.** inconclusive: 39.8 µM [inhibitor, single point]

**Q.** `COC(=O)c1cccc(NC(=O)c2nn(C(C)C)c(=O)c3ccccc23)c1` was tested. Which Potency did it give?
**A.** inconclusive: 1 µM [inhibitor, full curve, poor fit]

**Q.** For `N/C(=N\OC(=O)c1ccc(Cl)c(Cl)c1)c1ccccn1`, which Potency is on record?
**A.** inconclusive: 4.47 µM [inhibitor, single point]

**Q.** How did the Potency turn out when `CSc1nsc(SC)c1C(=O)NCCNS(=O)(=O)c1ccc(C)cc1` was run?
**A.** inconclusive: 39.8 µM [inhibitor, single point]

**Q.** `Cc1ccc(C(=O)CCS(=O)(=O)c2ccc(Br)cc2)cc1` was tested. Which Potency did it give?
**A.** inconclusive: 39.8 µM [inhibitor, single point]

**Q.** Which Potency does the source give for `O=P(c1ccccc1)(c1ccccc1)c1cc(S(=O)(=O)O)ccc1O` here?
**A.** inconclusive: 39.8 µM [inhibitor, single point]

**Q.** How did the Potency turn out when `C=C(CC)C(=O)c1ccc(OCC(=O)O)c(Cl)c1Cl` was run?
**A.** inconclusive: 17.8 µM [inhibitor, single point]

**Q.** For `CCC(C)NC(=O)C(=O)NCc1ccncc1` (stereo not given), which Potency is on record?
**A.** inconclusive: 1.41 µM [inhibitor, full curve]

**Q.** Which Potency does the source give for `CCN=C(NCC)SC1CC(=O)N(c2ccc(F)cc2)C1=O` (stereo not given) here?
**A.** inconclusive: 7.08 µM [inhibitor, single point]

**Q.** How did the Potency turn out when `CCC(=O)N/C(N)=N/c1nc(C)c2cc(C)c(C)cc2n1` was run?
**A.** inconclusive: 7.08 µM [inhibitor, single point]

**Q.** For `Cc1noc(C)c1COc1ccccc1C(=O)N1CCN(S(=O)(=O)c2ccccc2C(F)(F)F)CC1`, which Potency is on record?
**A.** inconclusive: 0.794 µM [inhibitor, full curve, poor fit]

**Q.** Which Potency does the source give for `Cc1ccc(S(=O)(=O)Cn2nnnc2C(CC(C)C)N2CCN(C)CC2)cc1` (stereo not given) here?
**A.** inconclusive: 3.98 µM [inhibitor, full curve, poor fit]

**Q.** With `O=P(COCCOCCOCP(=O)(c1ccccc1)c1ccccc1)(c1ccccc1)c1ccccc1` as the molecule, how does the Potency read?
**A.** inconclusive: 6.31 µM [inhibitor, single point]

**Q.** How did the Potency turn out when `Cc1cc(=O)oc2c3c(cc(OCC(=O)NCC4CCC(C(=O)O)CC4)c12)OC(C)(C)CC3` (stereo not given) was run?
**A.** inconclusive: 31.6 µM [inhibitor, partial curve]

**Q.** `O=C(CC(Cc1ccccc1)C(=O)O)Nc1ccccc1` (stereo not given) was tested. Which Potency did it give?
**A.** inconclusive: 1.78 µM [inhibitor, partial curve, poor fit]

**Q.** With `CCOC(=O)c1c(NC(=O)/C=C/C(=O)O)sc(C)c1-c1ccc(C(C)(C)C)cc1` as the molecule, how does the Potency read?
**A.** inconclusive: 39.8 µM [inhibitor, single point]

**Q.** With `CCOc1ccc(NC(=O)Cc2ccc(NC3=NC4CS(=O)(=O)CC4S3)cc2)cc1` (stereo not given) as the molecule, how does the Potency read?
**A.** inconclusive: 39.8 µM [inhibitor, single point]

**Q.** With `COc1ccc2[nH]c(O)c(N=O)c2c1` as the molecule, how does the “activity change, negative = inhibition” value read?
**A.** inactive: -11.4%

**Q.** Which “activity change, negative = inhibition” value does the source give for `COc1cccc(C(=O)Nc2ncc3c(n2)CC(c2ccc(OC)cc2OC)CC3=O)c1` (stereo not given) here?
**A.** inactive: -2.01%

**Q.** Which “activity change, negative = inhibition” value does the source give for `COc1ccc(-c2cc(C(=O)O)[nH]n2)cc1OC` here?
**A.** inactive: 0.765%

**Q.** With `CC(C)n1cc(CNC(=O)C2CCC(=O)N(Cc3ccccc3F)C2)cn1` (stereo not given) as the molecule, how does the Potency read?
**A.** inconclusive: 0.141 µM [inhibitor, full curve]

**Q.** Which “activity change, negative = inhibition” value does the source give for `C#CCOc1ccc(C2C(C(=O)OC)=C(C)NC3=C2C(=O)c2ccccc23)cc1OCC` (stereo not given) here?
**A.** inactive: -4.46%

**Q.** With `c1ccc(-c2cncnc2)cc1` as the molecule, how does the Potency read?
**A.** inconclusive: 20 µM [inhibitor, partial curve]

**Q.** For `COc1cc([N+](=O)[O-])cc(/C=C2/SC(=S)N(Cc3ccccc3)C2=O)c1O`, which Potency is on record?
**A.** inconclusive: 28.2 µM [inhibitor, single point]

**Q.** How did the Potency turn out when `COc1ccc(S(=O)(=O)N2CCOC2CNC(=O)C(=O)NCc2ccco2)cc1OC` (stereo not given) was run?
**A.** inconclusive: 39.8 µM [inhibitor, single point]
